Data from the supplement of paper PMC8728848.
The list shows a part of the results.

Columns and labels:
Assay in all cases: glycan array binding signal (z-score within array); higher = stronger binding
Settings in all cases: glycan notation: IUPAC condensed, linker removed
[1] = target: Fuc(a1-2)Gal
Summary of the method: (§1)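 The binding signal is a Z-score computed within each array and averaged over linkers. Arrays of the same protein sequence at different concentrations or buffers were also averaged together. Data originate from 3228 arrays in the Consortium for Functional Glycomics database, kept only where the protein sequence was available.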

[2] = target: Fuc(a1-2)Gal(b1-3)GalNAc
Summary of the method: as §1

[3] = target: Fuc(a1-2)Gal(b1-3)GalNAc(a1-3)[Fuc(a1-2)]Gal(b1-4)Glc
Summary of the method: as §1

[4] = target: Fuc(a1-2)Gal(b1-3)GalNAc(a1-3)[Fuc(a1-2)]Gal(b1-4)GlcNAc
Summary of the method: as §1

[5] = target: Fuc(a1-2)Gal(b1-3)GalNAc(b1-3)Gal
Summary of the method: as §1

[6] = target: Fuc(a1-2)Gal(b1-3)GalNAc(b1-3)Gal(a1-4)Gal(b1-4)Glc
Summary of the method: as §1

[7] = target: Fuc(a1-2)Gal(b1-3)GalNAc(b1-4)[Neu5Ac(a2-3)]Gal(b1-4)Glc
Summary of the method: as §1

[8] = target: Fuc(a1-2)Gal(b1-3)GlcNAc
Summary of the method: as §1

[9] = target: Fuc(a1-2)Gal(b1-3)GlcNAc(b1-2)Man(a1-3)[Fuc(a1-2)Gal(b1-3)GlcNAc(b1-2)Man(a1-6)]Man(b1-4)GlcNAc(b1-4)GlcNAc
Summary of the method: as §1

[10] = target: Fuc(a1-2)Gal(b1-3)GlcNAc(b1-2)Man(a1-3)[Fuc(a1-2)Gal(b1-3)GlcNAc(b1-2)Man(a1-6)]Man(b1-4)GlcNAc(b1-4)[Fuc(a1-6)]GlcNAc
Summary of the method: as §1

[11] = target: Fuc(a1-2)Gal(b1-3)GlcNAc(b1-3)Gal(b1-4)Glc
Summary of the method: as §1

[12] = target: Fuc(a1-2)Gal(b1-3)GlcNAc(b1-3)GalNAc
Summary of the method: as §1

[13] = target: Fuc(a1-2)Gal(b1-3)GlcNAc(b1-3)[Fuc(a1-2)Gal(b1-3)GlcNAc(b1-6)]GalNAc
Summary of the method: as §1

[14] = target: Fuc(a1-2)Gal(b1-3)GlcNAc(b1-3)[Gal(b1-4)GlcNAc(b1-6)]Gal(b1-4)Glc
Summary of the method: as §1

[15] = target: Fuc(a1-2)Gal(b1-3)GlcNAc(b1-3)[Neu5Ac(a2-6)Gal(b1-4)GlcNAc(b1-6)]Gal(b1-4)Glc
Summary of the method: as §1

[16] = target: Fuc(a1-2)Gal(b1-3)GlcNAc6S
Summary of the method: as §1

[17] = target: Fuc(a1-2)Gal(b1-3)[Fuc(a1-4)]GlcNAc
Summary of the method: as §1

[18] = target: Fuc(a1-2)Gal(b1-3)[Fuc(a1-4)]GlcNAc(b1-2)Man(a1-3)[Fuc(a1-2)Gal(b1-3)[Fuc(a1-4)]GlcNAc(b1-2)Man(a1-3)]Man(b1-4)GlcNAc(b1-4)GlcNAc
Summary of the method: as §1

[19] = target: Fuc(a1-2)Gal(b1-3)[Fuc(a1-4)]GlcNAc(b1-2)Man(a1-3)[Fuc(a1-2)Gal(b1-3)[Fuc(a1-4)]GlcNAc(b1-2)Man(a1-6)]Man(b1-4)GlcNAc(b1-4)[Fuc(a1-6)]GlcNAc(b1-4)[Fuc(a1-6)]GlcNAc
Summary of the method: as §1

[20] = target: Fuc(a1-2)Gal(b1-3)[Fuc(a1-4)]GlcNAc(b1-3)[Fuc(a1-3)[Gal(b1-4)]GlcNAc(b1-6)]Gal(b1-4)Glc
Summary of the method: as §1

[21] = target: Fuc(a1-2)Gal(b1-3)[Fuc(a1-4)]GlcNAc(b1-3)[Gal(b1-4)GlcNAc(b1-6)]Gal(b1-4)Glc
Summary of the method: as §1

[22] = target: Fuc(a1-2)Gal(b1-4)Glc
Summary of the method: as §1

[23] = target: Fuc(a1-2)Gal(b1-4)Glc6S
Summary of the method: as §1

[24] = target: Fuc(a1-2)Gal(b1-4)GlcNAc
Summary of the method: as §1

[25] = target: Fuc(a1-2)Gal(b1-4)GlcNAc(b1-2)Man
Summary of the method: as §1

[26] = target: Fuc(a1-2)Gal(b1-4)GlcNAc(b1-2)Man(a1-3)[Fuc(a1-2)Gal(b1-4)GlcNAc(b1-2)Man(a1-6)]Man(b1-4)GlcNAc(b1-4)GlcNAc
Summary of the method: as §1

[27] = target: Fuc(a1-2)Gal(b1-4)GlcNAc(b1-2)Man(a1-3)[Fuc(a1-2)Gal(b1-4)GlcNAc(b1-2)Man(a1-6)]Man(b1-4)GlcNAc(b1-4)[Fuc(a1-6)]GlcNAc
Summary of the method: as §1

[28] = target: Fuc(a1-2)Gal(b1-4)GlcNAc(b1-2)[Fuc(a1-2)Gal(b1-4)GlcNAc(b1-4)]Man(a1-3)[Fuc(a1-2)Gal(b1-4)GlcNAc(b1-2)Man(a1-6)]Man(b1-4)GlcNAc(b1-4)GlcNAc
Summary of the method: as §1

[29] = target: Fuc(a1-2)Gal(b1-4)GlcNAc(b1-3)Gal(b1-4)GlcNAc
Summary of the method: as §1

[30] = target: Fuc(a1-2)Gal(b1-4)GlcNAc(b1-3)Gal(b1-4)GlcNAc(b1-2)Man(a1-3)[Fuc(a1-2)Gal(b1-4)GlcNAc(b1-3)Gal(b1-4)GlcNAc(b1-2)Man(a1-6)]Man(b1-4)GlcNAc(b1-4)GlcNAc
Summary of the method: as §1

[31] = target: Fuc(a1-2)Gal(b1-4)GlcNAc(b1-3)Gal(b1-4)GlcNAc(b1-3)Gal(b1-4)GlcNAc
Summary of the method: as §1

[32] = target: Fuc(a1-2)Gal(b1-4)GlcNAc(b1-3)GalNAc
Summary of the method: as §1

[33] = target: Fuc(a1-2)Gal(b1-4)GlcNAc(b1-3)[Fuc(a1-2)Gal(b1-4)GlcNAc(b1-6)]GalNAc
Summary of the method: as §1

[34] = target: Fuc(a1-2)Gal(b1-4)GlcNAc(b1-3)[Fuc(a1-3)[Gal(b1-4)]GlcNAc(b1-6)]Gal(b1-4)Glc
Summary of the method: as §1

[35] = target: Fuc(a1-2)Gal(b1-4)GlcNAc(b1-6)GalNAc
Summary of the method: as §1

[36] = target: Fuc(a1-2)Gal(b1-4)GlcNAc6S
Summary of the method: as §1

[37] = target: Fuc(a1-2)Gal(b1-4)[Fuc(a1-3)]GlcNAc
Summary of the method: as §1

[38] = target: Fuc(a1-2)Gal(b1-4)[Fuc(a1-3)]GlcNAc(b1-2)Man(a1-3)[Fuc(a1-2)Gal(b1-4)[Fuc(a1-3)]GlcNAc(b1-2)Man(a1-6)]Man(b1-4)GlcNAc(b1-4)[Fuc(a1-6)]GlcNAc
Summary of the method: as §1

[39] = target: Fuc(a1-2)Gal(b1-4)[Fuc(a1-3)]GlcNAc(b1-2)[Fuc(a1-2)Gal(b1-4)[Fuc(a1-3)]GlcNAc(b1-4)]Man(a1-3)[Fuc(a1-2)Gal(b1-4)[Fuc(a1-3)]GlcNAc(b1-2)Man(a1-6)]Man(b1-4)GlcNAc(b1-4)GlcNAc
Summary of the method: as §1

[40] = target: Fuc(a1-2)Gal(b1-4)[Fuc(a1-3)]GlcNAc(b1-3)Gal(b1-4)[Fuc(a1-3)]GlcNAc
Summary of the method: as §1

[41] = target: Fuc(a1-2)Gal(b1-4)[Fuc(a1-3)]GlcNAc(b1-3)Gal(b1-4)[Fuc(a1-3)]GlcNAc(b1-3)Gal(b1-4)[Fuc(a1-3)]GlcNAc
Summary of the method: as §1

[42] = target: Fuc(a1-2)Gal(b1-4)[Fuc(a1-3)]GlcNAc(b1-3)GalNAc
Summary of the method: as §1

[43] = target: Fuc(a1-2)Gal(b1-4)[Fuc(a1-3)]GlcNAc(b1-3)[Neu5Ac(a2-6)Gal(b1-4)GlcNAc(b1-6)]Gal(b1-4)Glc
Summary of the method: as §1

[44] = target: Fuc(a1-2)Gal3S(b1-4)GlcNAc
Summary of the method: as §1

[45] = target: Fuc(a1-2)Gal6S(b1-3)GlcNAc
Summary of the method: as §1

B1: PX15642A-pgi-501-20-501 (Parabacteroides gingivalis) (protein)
chain: CELDRDPEGKDFQQPYTSFVQTKQNRDGLYALLRNTENPRMHFYQELQSDMYCTTITDGNSLAPFVNWDLGILNDHGRADEDEVSGIAGYYFVYNRLNQQANAFVNNTEAALQNQVYKNSTEIANAKSFLAEGKVLQALAIWRLMDRFSFHESVTEVNSGAKDLGVILLKEYNPGYIGPRATKAQCYDYILSRLSEAIEVLPENRESVLYVSRDYAYALRARIYLALGEYGKAAADAKMVVDKYPLIGAADASEFENIYRSDANNPEIIFRGFASATLGSFTATTLNGAAPAGKDIKYNPSAVPFQWVVDLYENEDFRKSVYIAKVVKKDKGYLVNKFLEDKAYRDVQDKPNLKVGARYFSVAEVYLILVESALQTGDTPTAEKYLKALSKARGAEVSVVNMEALQAERTRELIGEGSRLRDMVRWSIPNNHDAFETQPGLEGFANTTPLKAQAPVGFYAYTWEFPQRDRQTNPQLIKNWPI
B1 was tested, and the “glycan array binding signal (z-score)” value [1] was 0.132, the “glycan array binding signal (z-score)” value [2] was -0.589 and the “glycan array binding signal (z-score)” value [3] was 0.033. The “glycan array binding signal (z-score)” value [4] was -0.192, the “glycan array binding signal (z-score)” value [5] was -0.344 and the “glycan array binding signal (z-score)” value [6] was -0.595. For the same binder, the “glycan array binding signal (z-score)” value [7] was -0.631, the “glycan array binding signal (z-score)” value [8] was -0.306 and the “glycan array binding signal (z-score)” value [9] was 0.643. The “glycan array binding signal (z-score)” value [10] was 0.224, the “glycan array binding signal (z-score)” value [11] was -0.086 and the “glycan array binding signal (z-score)” value [12] was -0.094. For the same binder, the “glycan array binding signal (z-score)” value [13] was 0.332, the “glycan array binding signal (z-score)” value [14] was -0.21 and the “glycan array binding signal (z-score)” value [15] was -0.121. For the same binder, the “glycan array binding signal (z-score)” value [16] was -0.42, the “glycan array binding signal (z-score)” value [17] was -0.54 and the “glycan array binding signal (z-score)” value [18] was -0.615. For the same binder, the “glycan array binding signal (z-score)” value [19] was -0.068, the “glycan array binding signal (z-score)” value [20] was 0.146 and the “glycan array binding signal (z-score)” value [21] was -0.626. The “glycan array binding signal (z-score)” value [22] was 0.62, the “glycan array binding signal (z-score)” value [23] was 0.505 and the “glycan array binding signal (z-score)” value [24] was 0.154. For the same binder, the “glycan array binding signal (z-score)” value [25] was -0.843, the “glycan array binding signal (z-score)” value [26] was 0.234 and the “glycan array binding signal (z-score)” value [27] was -0.142. For the same binder, the “glycan array binding signal (z-score)” value [28] was -0.022, the “glycan array binding signal (z-score)” value [29] was 0.038 and the “glycan array binding signal (z-score)” value [30] was -0.056. For the same binder, the “glycan array binding signal (z-score)” value [31] was -0.395, the “glycan array binding signal (z-score)” value [32] was -0.892 and the “glycan array binding signal (z-score)” value [33] was -0.178. For the same binder, the “glycan array binding signal (z-score)” value [34] was 0.03, the “glycan array binding signal (z-score)” value [35] was 2.85 and the “glycan array binding signal (z-score)” value [36] was -0.631. For the same binder, the “glycan array binding signal (z-score)” value [37] was -0.863, the “glycan array binding signal (z-score)” value [38] was 0.304 and the “glycan array binding signal (z-score)” value [39] was -0.484. The “glycan array binding signal (z-score)” value [40] was -0.326, the “glycan array binding signal (z-score)” value [41] was -0.25 and the “glycan array binding signal (z-score)” value [42] was -0.369. For the same binder, the “glycan array binding signal (z-score)” value [43] was 0.612, the “glycan array binding signal (z-score)” value [44] was -0.833 and the “glycan array binding signal (z-score)” value [45] was 0.128.
